Where a name gives a salt, the structure may show the parent alone. The list shows a part of the results. Plates or batches differ in their baseline, so values are only roughly comparable.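 A clonal Drosophila S2 line expresses Smoothened bearing circularly permuted GFP in its cytoplasmic tail; Hh-driven phosphorylation opens an inhibitory loop, making it fluoresce. Flow cytometry measured per-cell fluorescence, normalized to Hh-stimulated untreated cells. Hits were inhibitor groups with shared pathway targets that consistently shifted fluorescence, not individual compounds.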
Test system: Drosophila S2 cl14 SmoIP sensor cells
Assay: normalized SmoIP GFP fluorescence (untreated unstimulated = 0%, untreated Hh-stimulated = 100%); higher = more Smo activation sensor fluorescence
Settings: compound concentration: 15 uM, 24 h
[1] = stimulation: Hh conditioned medium (+Hh)
[2] = stimulation: mock conditioned medium (-Hh)

Row | Structure (SMILES) | normalized SmoIP GFP fluorescence [1] [%] | normalized SmoIP GFP fluorescence [2] [%]
1 | CC(=O)O[C@]1(C(C)=O)CC[C@H]2[C@@H]3C=C(C)C4=CC(=O)CC[C@]4(C)[C@H]3CC[C@@]21C [Megestrol-Acetate] | 167 | 48.9
2 | Cc1ccc(N(CC2=NCCN2)c2cccc(O)c2)cc1 [phentolamine-mesilate] | 128 | -9.85
3 | COc1ccc(CNC(=O)Nc2ncc([N+](=O)[O-])s2)cc1 | 176 | -6.79
4 | CN(C)C1CCN(C(=O)c2ccc(NC(=O)Nc3ccc(-c4nc(N5CCOCC5)nc(N5CCOCC5)n4)cc3)cc2)CC1 | 62.6 | -4.35
5 | COCCCC/C(=N\OCCN)c1ccc(C(F)(F)F)cc1 [Fluvoxamine-maleate] | 136 | 24.3
6 | COc1cc(OC)c(/C=C/S(=O)(=O)Cc2ccc(OC)c(NCC(=O)O)c2)c(OC)c1 | 71.1 | 20.4
7 | Fc1ccc(C(c2ccc(F)cc2)N2CCN(C/C=C/c3ccccc3)CC2)cc1 [flunarizine-dihydrochloride] | 205 | 54.6
8 | CNC(=O)c1ccc(N2C(=S)N(c3cnc(C#N)c(C(F)(F)F)c3)C(=O)C23CCC3)cc1F | 133 | 6.67
9 | CN1CCC(NC(=O)c2cc(-c3c(O)cc(O)cc3Oc3ccc([N+](=O)[O-])cc3)on2)CC1 | 197 | 34.8
10 | CCOC(=O)[C@H](CCc1ccccc1)N[C@H]1CCCN2CCC[C@H](C(=O)O)N2C1=O [cilazapril-monohydrate-inhibace] | 121 | -12
11 | C[C@H]1COC2=C1C(=O)C(=O)c1c2ccc2c1CCCC2(C)C [Cryptotanshinone] | 138 | 7.19
12 | CC(C)(C)NC[C@H](O)COc1nsnc1N1CCOCC1 [timolol-maleate] | 118 | -0.0369
13 | NS(=O)(=O)C#Cc1ccccc1 [pifithrin-u] | 93.3 | 14.5
14 | CN(C)C(=O)c1cc2cnc(Nc3ccc(N4CCNCC4)cn3)nc2n1C1CCCC1 | 124 | 5.45
15 | CNC(=O)c1nn(C)c2c1C(C)(C)Cc1cnc(Nc3ccc(N4CCN(C)CC4)cc3)nc1-2 | 120 | 44.8
16 | O=C(CCCCCN1C(=O)c2cccc3cccc(c23)C1=O)NO [scriptaid] | 144 | 6.28
17 | CC(=O)O[C@]1(C(C)=O)CC[C@H]2[C@@H]3C[C@H](C)C4=CC(=O)CC[C@]4(C)[C@H]3CC[C@@]21C [Medroxyprogesterone-acetate] | 156 | 9.71
18 | CC(=O)O[C@H]1CC[C@@]2(C)C(=CCC3C2CC[C@]2(C)C(c4cccnc4)=CCC32)C1 (stereo partly drawn) [Abiraterone-Acetate-CB7630] | 127 | 0.605
19 | Cc1cccc(-c2[nH]ncc2-c2ccc3ncccc3n2)n1 [repsox] | 175 | 30.3
20 | CCCCCCCCc1ccc(CCC(N)(CO)CO)cc1 | 132 | 26.7
21 | CC(C)(C)c1cc(C(C)(C)C)c(NC(=O)c2c[nH]c3ccccc3c2=O)cc1O | 122 | 55
22 | Cc1ccc(S(=O)(=O)C=CC#N)cc1 | 96.1 | 84.4
23 | CCOc1ccn(-c2ccc(F)cc2)c(=O)c1C(=O)Nc1ccc(Oc2ccnc(N)c2Cl)c(F)c1 | 53.5 | -6.51

Row | Structure (SMILES) | normalized SmoIP GFP fluorescence [1] [%] | normalized SmoIP GFP fluorescence [2] [%]
24 | C[C@@H]1C(=O)O[C@H]2C[C@@]34[C@H]5C[C@@H](C(C)(C)C)[C@]36[C@@H](OC(=O)[C@@H]6O)O[C@@]4(C(=O)O5)[C@]21O [ginkgolide-a] | 109 | -4.58
25 | COc1ccc(S(=O)(=O)N(C(C)=O)c2ccccc2/C=C/c2cc[n+]([O-])cc2)cc1 | 130 | 42.6
26 | Nc1c(Br)cc(Br)cc1CN[C@H]1CC[C@H](O)CC1 [ambroxol-hcl] | 126 | 8.14
27 | CN(C)CCc1c[nH]c2ccc(Cn3cncn3)cc12 [Rizatriptan-Benzoate(Maxalt)] | 129 | -2.64
28 | Cn1cc(CNCC2CCN(c3ncc(C(=O)NO)cn3)CC2)c2ccccc21 | 277 | 75.9
29 | O=C(CCCS)NC1CCN(C(=O)COc2ccc(Cl)cc2Cl)CC1 [k-ras-g12c-inhibitor-6] | 121 | 0.361
30 | CNC(=O)c1ccc(N2C(=S)N(c3ccc(C#N)c(C(F)(F)F)c3)C(=O)C2(C)C)cc1F | 133 | 94.6
31 | N#Cc1ccc(C(c2ccc(C#N)cc2)n2cncn2)cc1 [Letrozole] | 131 | 1.35
32 | COc1ccccc1N1CCN(CCN(C(=O)C2CCCCC2)c2ccccn2)CC1 | 141 | -5.35
33 | COc1cccc(Nc2c(C(N)=O)cnc3c(C)cc(S(=O)(=O)c4cccc(C(=O)N(C)C)c4)cc23)c1 | 152 | 19.1
34 | C[C@H](NC(=O)Cc1cc(F)cc(F)c1)C(=O)N[C@H](C(=O)OC(C)(C)C)c1ccccc1 | 170 | -6.16
35 | CCNC(=O)[C@H]1O[C@@H](n2cnc3c(N)nc(NCCc4ccc(CCC(=O)O)cc4)nc32)[C@H](O)[C@@H]1O | 120 | -9.58
36 | O=C(Nc1ccccc1)N1CCN(c2nc(-c3ccccc3)ns2)CC1 | 120 | 25.8
37 | C[C@H](NC(=O)/C(C#N)=C/c1cccc(Br)n1)c1ccccc1 | 80.7 | 75.5
38 | CC(C)OC(=O)C1=CN(C(=O)c2ccc(F)c(F)c2)CC(C)(C)c2c1[nH]c1ccccc21 | 121 | -15.3
39 | CN1CCN(CCCN2c3ccccc3Sc3ccc(C(F)(F)F)cc32)CC1 [trifluoperazine-dihydrochloride] | 172 | 43
40 | C[N+]1(C)[C@@H]2C[C@@H](OC(=O)C(O)(c3cccs3)c3cccs3)C[C@H]1[C@@H]1O[C@@H]12 [Tiotropium-Bromide-hydrate] | 121 | -17.7
41 | Cc1ccc(NC(=O)c2ccc(CN3CCN(C)CC3)cc2)cc1Nc1nc(-c2cccnc2)cs1 [Masitinib-(AB1010)] | 96.5 | 64.8
42 | Cc1cc2c(F)c(Oc3ncnn4cc(OC[C@@H](C)O)c(C)c34)ccc2[nH]1 [Brivanib] | 136 | 39.5
43 | COc1ccc([C@H]2CNC(=O)C2)cc1OC1CCCC1 [sRolipram] | 128 | -5.8
44 | CC(=O)OCC[N+](C)(C)C [Acetylcholine-chloride] | 129 | -13.9
45 | Cc1ccc([C@@H]2O[C@H](CO)[C@@H](O)[C@H](O)[C@H]2O)cc1Cc1ccc(-c2ccc(F)cc2)s1 [canagliflozin] | 109 | -14.5
46 | O=C1c2ccccc2C(=O)c2c1ccc(O)c2O [Alizarin] | 156 | 21.6

As entered above:
CNC(=O)c1ccc(N2C(=S)N(c3cnc(C#N)c(C(F)(F)F)c3)C(=O)C23CCC3)cc1F | normalized SmoIP GFP fluorescence [2] [%]: 6.67
CN(C)CCc1c[nH]c2ccc(Cn3cncn3)cc12 [Rizatriptan-Benzoate(Maxalt)] | normalized SmoIP GFP fluorescence [2] [%]: -2.64
CC(C)OC(=O)C1=CN(C(=O)c2ccc(F)c(F)c2)CC(C)(C)c2c1[nH]c1ccccc21 | normalized SmoIP GFP fluorescence [2] [%]: -15.3

(listing goes on)

Row | Structure (SMILES) | normalized SmoIP GFP fluorescence [1] [%] | normalized SmoIP GFP fluorescence [2] [%]
47 | COCCCOc1cc(C[C@@H](C[C@H](N)[C@@H](O)C[C@H](C(=O)NCC(C)(C)C(N)=O)C(C)C)C(C)C)ccc1OC [Aliskiren-hemifumarate] | 137 | -16.1
48 | COc1cc2ncnc(Nc3ccc(Cl)cc3F)c2cc1OC | 141 | 41.8
49 | CC(=O)Nc1ccc(NC(=S)NC(=O)c2ccc(C(C)(C)C)cc2)cc1 [tenovin-1] | 154 | 64.1
50 | CC(=O)N[C@@H](CS)C(=O)O [Acetylcysteine] | 131 | 2.97
51 | CN1CCc2c(c3ccccc3n2Cc2ccc(C(=O)NO)cc2)C1 [tubastatin-a-hcl] | 133 | 0.154
52 | CCNC(=O)c1[nH]nc(-c2cc(Cl)c(O)cc2O)c1-c1ccc(OC)cc1 | 252 | 69.4
53 | COc1ccc(-c2oc3c(CC=C(C)C)c(O[C@@H]4O[C@H](CO)[C@@H](O)[C@H](O)[C@H]4O)cc(O)c3c(=O)c2O[C@@H]2O[C@@H](C)[C@H](O)[C@@H](O)[C@H]2O)cc1 [Icariin] | 115 | -2.82
54 | COc1ccccc1OCC(O)CN1CCN(CC(=O)Nc2c(C)cccc2C)CC1 (stereo not drawn) [Ranolazine-dihydrochloride] | 134 | 10.7
55 | COC(=O)Nc1ccc(-c2nc(N3CCOCC3)c3cnn(C4CCN(C(=O)OC)CC4)c3n2)cc1 | 75.9 | 4.04
56 | CCCCOc1cc(C(=O)NCCN(CC)CC)c2ccccc2n1 [dibucaine-cinchocaine-hcl] | 137 | 15.4
57 | CCOC(=O)C1=C(C)NC(C)=C(C(=O)OC)C1c1cccc([N+](=O)[O-])c1 (stereo not drawn) [Nitrendipine] | 147 | -12.9
58 | CNCCc1ccccn1 [betahistine-dihydrochloride] | 116 | -6.29
59 | O=C(NC[C@H]1CN(c2ccc(N3CCOCC3=O)cc2)C(=O)O1)c1ccc(Cl)s1 [Rivaroxaban] | 112 | 3.66
60 | CCCCNc1ccc(C(=O)OCCN(C)C)cc1 [tetracaine-hydrochloride-pontocaine] | 161 | -8.23
61 | COc1cccc(-c2cc(=O)c3ccccc3o2)c1N | 177 | 18.3
62 | C#CCC(Cc1cnc2nc(N)nc(N)c2n1)c1ccc(C(=O)N[C@@H](CCC(=O)O)C(=O)O)cc1 (stereo partly drawn) [Pralatrexate(Folotyn)] | 220 | 21
63 | CC(C)(C)NC(=O)[C@H]1CC[C@H]2[C@@H]3CC[C@H]4NC(=O)C=C[C@]4(C)[C@H]3CC[C@]12C [Finasteride] | 52.4 | -8.78
64 | CCc1cncnc1N1CCN(Cc2nc3ccc(C(F)(F)F)cc3[nH]2)CC1 | 130 | 64.6
65 | COC(=O)C1=C(C)NC(C)=C(C(=O)OC(C)C)C1c1cccc2nonc12 (stereo not drawn) [Isradipine(Dynacirc)] | 155 | 69.4
66 | Nc1nccc(Oc2ccc(NC(=O)c3c[nH]cc(-c4ccc(F)cc4)c3=O)cc2F)c1Cl | 197 | 54
67 | CCC[C@H](NC(=O)[C@@H]1[C@H]2CCC[C@H]2CN1C(=O)[C@@H](NC(=O)[C@@H](NC(=O)c1cnccn1)C1CCCCC1)C(C)(C)C)C(=O)C(=O)NC1CC1 [Telaprevir(VX-950)] | 131 | 14.5
68 | O=C(Nc1ccccc1)Nc1ccc(-c2ccc(C(=O)[C@@H]3CCC[C@H]3C(=O)O)cc2)cc1 | 134 | -4.35
69 | CN(Cc1cnc2nc(N)nc(N)c2n1)c1ccc(C(=O)N[C@@H](CCC(=O)O)C(=O)O)cc1 [Abitrexate] | 229 | 17.4

A portion of the results above, for reference:
Row | Structure (SMILES) | normalized SmoIP GFP fluorescence [1] [%] | normalized SmoIP GFP fluorescence [2] [%]
49 | CC(=O)Nc1ccc(NC(=S)NC(=O)c2ccc(C(C)(C)C)cc2)cc1 [tenovin-1] | 154 | 64.1
50 | CC(=O)N[C@@H](CS)C(=O)O [Acetylcysteine] | 131 | 2.97

— the supplement of paper PMC5662767
